Assay results taken from paper PMC8415707 (Frontiers in Pharmacology, 2021).

Target: T1, FM-CATH (F. multistriata)
T1 sequence (peptide): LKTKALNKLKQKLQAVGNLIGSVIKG
Test: SPR; SPRi (PlexArray HT A100, bare gold chip); FM-CATH (2 mM) and BSA in PBS spotted on the chip, blocked with 1 M ethanolamine pH 8.5; different concentrations of proteases flowed over at 2 uL/s; regeneration with 0.5% H3PO4; both purified

Substance	binding
plasmin (enzyme)	binds
tPA (enzyme)	binds
thrombin (enzyme)	binds

These are yes or no findings as the source states them, for the method shown. Binding calls can cover weak binding; strength is not graded here.
